Measured values reported in PubChem BioAssay AID720534 (National Center for Advancing Translational Sciences (NCATS), 2013).
About 990 (62%) of roughly 1,600 compounds were called active. The set was probably picked from earlier hits. The shares of active, inactive and inconclusive entries below differ from those in the screen. Calls follow the shape of the dose curve; as a rule, active = well fitted inhibition curve with a large enough effect; inconclusive = small, poorly fitted or top-dose-only effect; inactive = no such curve, though single readings can be large or run the other way. Potencies beside an inconclusive call are fits to weak or partial responses and may not hold up.

experiment: qHTS for Inhibitors of TGF-b: Confirmation of Cherry Picks; settings: HepG2 CAGA-GFP TGF-b reporter, GFP fluorescence, 18 h, cells stimulated with TGF-beta, 500 pg/mL; activity, negative = inhibition: at 46.1 µM (top of the series); also: nearly all actives have a fitted effect of over 65% in size
Procedure, shortened: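 Retest of primary hits: compounds pinned onto HEPG2 cells carrying a CAGA-GFP reporter, followed by recombinant TGF-beta (500 pg/mL final), 18 h at 37 degrees C. Total well GFP fluorescence, scaled between stimulated and unstimulated controls, fitted to concentration-response.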
% is scaled to controls: 0 for no effect and ±100 for the full control effect; potency is read from the fitted curve at half-maximal effect.

| Structure (SMILES) | Potency | activity, negative = inhibition |
| --- | --- | --- |
| O=C1C(Nc2ccccc2)=C(NS(=O)(=O)c2ccccc2)C(=O)c2ccccc21 | inconclusive: 3.26 µM [inhibitor, full curve, poor fit] | – |
| O=S(=O)(c1ccccc1F)N1CCN(Cc2cc3c(cc2Br)OCCO3)CC1 | inconclusive: 20.6 µM [inhibitor, single point] | – |
| COc1ccc(/C(C)=N/Nc2nc3ccccc3nc2C)cc1 | inconclusive: 32.6 µM [inhibitor, single point] | – |
| CC1CCc2[nH]c3ccc(C(=O)N4CCCC(C(F)(F)F)C4)cc3c2C1 (stereo not given) | inconclusive: 29.1 µM [inhibitor, single point] | – |
| COc1ccc(NS(=O)(=O)c2cccc(NC(=O)CCC(=O)c3ccc(Cl)cc3)c2)cc1 | active: 16.4 µM | – |
| Cc1cccc(N2CCN(C(=O)CCCSc3nc4ccccc4[nH]3)CC2)c1C | inconclusive: 23.1 µM [inhibitor, single point] | – |
| CCOC(=O)c1c(C)oc2c1c(C=NCc1ccccn1)c(O)c1ccccc12 | inconclusive: 29.1 µM [inhibitor, single point] | – |
| CCOC(=O)N1CCN(C(=O)COc2cccc3c2CCN(Cc2cccc(C)c2)C3=O)CC1 | inconclusive: 16.4 µM [inhibitor, partial curve] | – |
| Cc1ccc(NC(=S)/N=C(\N)Nc2nc(C)c3cc(C)ccc3n2)c(C)c1 | active: 4.61 µM | – |
| COc1ccc(S(=O)(=O)N2CCC(C(=O)N3CCc4ccccc4C3)CC2)cc1Cl | inconclusive: 18.4 µM [inhibitor, partial curve, poor fit] | – |
| CC(=O)Nc1ccc2c(c1)-c1ccc(F)cc1C2 | inconclusive: 29.1 µM [inhibitor, single point] | – |
| C=CCn1c(CSCc2ccc(Cl)cc2)nnc1SCC(=O)NCc1ccccc1 | inconclusive: 23.1 µM [inhibitor, single point] | – |
| O=C(Nc1ccccc1)Nc1nnc(CSCc2ccccc2Cl)s1 | inconclusive: 18.4 µM [inhibitor, single point] | – |
| CCCn1c(C(C)Nc2nc(-c3ccc(C)cc3)cs2)nc2ccccc21 (stereo not given) | inconclusive: 20.6 µM [inhibitor, single point] | – |
| CC(C(=O)N1CCc2ccccc21)N1CCN(c2cccc(C(F)(F)F)c2)CC1 (stereo not given) | inconclusive: 25.9 µM [inhibitor, partial curve] | – |
| O=c1c2cn[nH]c2nc(SCc2ccccc2F)n1-c1ccc(Br)cc1 | inconclusive: 18.4 µM [inhibitor, single point] | – |
| OC1(c2ccc(Cl)cc2)CCN(Cc2cn[nH]c2-c2ccc(F)cc2)CC1 | inconclusive: 29.1 µM [inhibitor, single point] | – |
| CC(C)C[C@H]1CN([C@@H](Cc2ccc(O)cc2)CN2CCC[C@@H]2CN2C(=S)NC[C@@H]2Cc2ccccc2)C(=S)N1CC1CCCCCC1 | inconclusive: 20.6 µM [inhibitor, single point] | – |
| O=C(Oc1c(CN2CCOCC2)cc(Cl)c2cccnc12)c1ccccc1Br | inactive | – |
| Cc1ccc(SC2=C(N(C)C)C(=O)c3ccccc3C2=O)cc1 | inconclusive: 16.4 µM [inhibitor, single point] | – |
| C=CCNC(=O)c1onc(CSc2ccc(F)cc2)c1C(=O)NCCOC | inactive | – |
| COc1ccc(S(=O)(=O)N2CCOCC2)cc1NC(=O)CSc1nnc(N)s1 | inactive | – |

| Structure (SMILES) | Potency | activity, negative = inhibition |
| --- | --- | --- |
| COCCNc1nc(NCc2cccs2)nc2ccsc12 | active: 6.51 µM | – |
| C=C(C)c1cccc(C(C)(C)NC(=O)Nc2nnc(C(C)C)s2)c1 | inconclusive: 20.6 µM [inhibitor, single point] | – |
| Cc1cc(Nc2cccc([N+](=O)[O-])c2)n2c(nc3ccccc32)c1C#N | inconclusive: 2.06 µM [inhibitor, full curve] | – |
| CC(C)C[C@H](NC(=O)c1nc[nH]c1C(=O)N[C@@H](CCCCNC(=O)OC(C)(C)C)C(=O)OC(C)(C)C)C(=O)OC(C)(C)C | active: 8.2 µM | – |
| CCn1c(/C=C/c2cc(Br)ccc2O)nc2ccccc2c1=O | inconclusive: 29.1 µM [inhibitor, single point] | – |
| CCSc1ccccc1C(=O)n1nnc2ccccc21 | active: 5.8 µM | – |
| CC(C)(C)c1nnc(NC(=O)CCS(=O)(=O)c2ccccc2)s1 | active: 3.66 µM | – |
| CCOc1ccc(N(CC(=O)Nc2ccccc2OCC)S(=O)(=O)c2c(C)noc2C)cc1 | active: 6.51 µM | – |
| COc1ccc(CCNC(=O)CNS(=O)(=O)c2ccc(Cl)cc2)cc1 | inactive | – |
| CCCOc1ccccc1C1CC(=O)Nc2cc3c(cc21)OCO3 (stereo not given) | active: 8.2 µM | – |
| Fc1ccc(CN2CCN(C(=S)NCCc3ccccc3)CC2)c(Cl)c1 | inconclusive: 16.4 µM [inhibitor, single point] | – |
| CC(C)C(=O)N1CCN(c2ccc(NC(=O)c3ccc([N+](=O)[O-])o3)cc2Cl)CC1 | active: 5.8 µM | – |
| NNC(=O)c1[nH]c2ccc([N+](=O)[O-])cc2c1-c1ccccc1 | inconclusive: 29.1 µM [inhibitor, single point] | – |
| COc1ccccc1N1CCN(Cc2cc(Br)c(O)c3ncccc23)CC1 | inconclusive: 20.6 µM [inhibitor, partial curve] | – |
| O=C(NCCN1CCOCC1)c1ccc(Cl)c(S(=O)(=O)N2CCCCCC2)c1 | inconclusive: 11.6 µM [inhibitor, partial curve] | – |
| Cc1oc2cc(Br)c(O)c(Br)c2c1-c1ccccc1 | inconclusive: 18.4 µM [inhibitor, single point] | – |
| O=C(Nc1cccc(-n2cnnn2)c1)c1cc(Cl)ccc1Cl | inconclusive: 9.2 µM [inhibitor, partial curve, poor fit] | – |
| CC(=O)c1cn(CC(=O)Nc2c(C)cccc2C)c2ccccc12 | inconclusive: 14.6 µM [inhibitor, partial curve, poor fit] | – |
| CC1=C(C(=O)Nc2cccc(F)c2)C(c2ccsc2)C2=C(CC(C)(C)CC2=O)N1 (stereo not given) | inconclusive: 16.4 µM [inhibitor, partial curve] | – |
| O=C(NCc1cccnc1)c1cc(Sc2cccc(Cl)c2)nc2ccccc12 | inconclusive: 23.1 µM [inhibitor, single point] | – |
| CC(C)c1ccccc1NC(=O)Cn1c(/C=C/c2ccccc2)nc2ccccc21 | inactive | – |
| CCOC(=O)N(C)c1c(CC)nc2c(OCc3ccc(C(F)(F)F)cc3)cccn12 | inconclusive: 18.4 µM [inhibitor, partial curve] | – |

3 of the compounds above, field by field.
CC(C)C[C@H](NC(=O)c1nc[nH]c1C(=O)N[C@@H](CCCCNC(=O)OC(C)(C)C)C(=O)OC(C)(C)C)C(=O)OC(C)(C)C
  Potency: active: 8.2 µM
Fc1ccc(CN2CCN(C(=S)NCCc3ccccc3)CC2)c(Cl)c1
  Potency: inconclusive: 16.4 µM [inhibitor, single point]
Cc1oc2cc(Br)c(O)c(Br)c2c1-c1ccccc1
  Potency: inconclusive: 18.4 µM [inhibitor, single point]

The results go on:

| Structure (SMILES) | Potency | activity, negative = inhibition |
| --- | --- | --- |
| NC(=O)CC(NC(=O)Cc1cccc2ccccc12)c1ccc(N2CCC(Br)CC2)c([N+](=O)[O-])c1 (stereo not given) | inconclusive: 20.6 µM [inhibitor, single point] | – |
| Cc1ccc(S(=O)(=O)N2CCOCC2)cc1C(=O)Nc1nc(-c2ccccn2)cs1 | active: 9.2 µM | – |
| CCCCN(C(=O)Cc1ccc(S(=O)(=O)N2CCOCC2)s1)c1c(N)n(CCCC)c(=O)[nH]c1=O | inactive | – |
| COc1ccccc1NS(=O)(=O)c1ccc(-c2cnc(C3CC3)o2)cc1 | inconclusive: 13 µM [inhibitor, partial curve, poor fit] | – |
| COc1ccc(-c2[nH]ncc2-c2ccc(Cl)cc2)c(O)c1 | inconclusive: 23.1 µM [inhibitor, single point] | – |
| COc1ccc(C(NC(=O)CN2C(=O)NC3(CCc4ccccc43)C2=O)c2ccccc2)cc1 (stereo not given) | inconclusive: 13 µM [inhibitor, partial curve] | – |
| Cc1ccc(NC(=O)/C=C/c2ccc([N+](=O)[O-])s2)c(C)c1 | – | inconclusive: -18.9% [inhibitor] |
| O=C(C[C@H]1C/C=C\CC[C@H](Cc2ccc(F)cc2)C(=O)O[C@@H](c2ccccc2)CNC1=O)N[C@@H](CO)Cc1ccccc1 | inconclusive: 18.4 µM [inhibitor, single point] | – |
| COc1cc(C2c3cc4c(cc3OC(NCCc3ccccc3)C2C)OCO4)cc(OC)c1OC (stereo not given) | inconclusive: 6.51 µM [inhibitor, full curve] | – |
| COc1ccc(Nc2nnc(-c3ccc(C)cc3)c3ccccc23)cc1C(=O)N1CCCCC1 | inactive | – |
| Cc1ccc(-c2nc3ccc(Br)cn3c2Cc2cccc(F)c2)cc1 | inconclusive: 32.6 µM [inhibitor, single point] | – |
| O=C(Nc1ccc(N2CCCCC2)c(S(=O)(=O)Nc2ccccc2Cl)c1)c1cccnc1 | inconclusive: 16.4 µM [inhibitor, partial curve, poor fit] | – |
| COc1ccc(C2C(C#N)=C(N)N(Nc3ccccc3)C3=C2C(=O)CC(C)(C)C3)cc1C (stereo not given) | active: 20.6 µM | – |
| O=C(CSc1nnc(-c2ccc(F)cc2)c2ccccc12)Nc1ccccc1 | active: 14.6 µM | – |
| O=[N+]([O-])c1cc(Cl)ccc1N1CCN(c2ccccc2O)CC1 | inconclusive: 29.1 µM [inhibitor, single point] | – |
| Cc1ccc(SC(C)C(=O)NCc2ccncc2)cc1 (stereo not given) | inconclusive: 29.1 µM [inhibitor, single point] | – |
| Cc1ccc(SCC(=O)Nc2cc([N+](=O)[O-])ccc2O)cc1 | active: 4.61 µM | – |
| CC(C)(C)CN1CCN(Cc2nc(-c3ccc(F)cc3)cs2)CC1CCO (stereo not given) | inconclusive: 3.66 µM [inhibitor, full curve] | – |
| CCN(CC)S(=O)(=O)c1cccc(C(=O)N[C@H](C(=O)Nc2nc3ccc(F)cc3s2)C(C)C)c1 | active: 4.11 µM | – |
| CC(C)CCNC(=O)C(c1ccco1)N(Cc1cccs1)C(=O)Cn1nnc2ccccc21 (stereo not given) | inconclusive: 29.1 µM [inhibitor, single point] | – |
| CS/C(=N\S(=O)(=O)c1cccs1)Nc1ccc(F)c(Cl)c1 | inconclusive: 29.1 µM [inhibitor, single point] | – |
